Source: the supplement of paper PMC10849652
Some of the results follow.

Sequences of proteins named here, by UniProt entry; tags and fusion partners are left off. A change or cut given only in a name is not applied to a line headed by its entry.
UniProt P30536, whole entry, looked up: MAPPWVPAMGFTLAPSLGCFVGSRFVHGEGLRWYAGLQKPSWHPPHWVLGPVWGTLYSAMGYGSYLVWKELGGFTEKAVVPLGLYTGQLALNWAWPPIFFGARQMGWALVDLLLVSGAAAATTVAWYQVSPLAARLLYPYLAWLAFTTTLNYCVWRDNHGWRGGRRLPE
UniProt Q8NG11: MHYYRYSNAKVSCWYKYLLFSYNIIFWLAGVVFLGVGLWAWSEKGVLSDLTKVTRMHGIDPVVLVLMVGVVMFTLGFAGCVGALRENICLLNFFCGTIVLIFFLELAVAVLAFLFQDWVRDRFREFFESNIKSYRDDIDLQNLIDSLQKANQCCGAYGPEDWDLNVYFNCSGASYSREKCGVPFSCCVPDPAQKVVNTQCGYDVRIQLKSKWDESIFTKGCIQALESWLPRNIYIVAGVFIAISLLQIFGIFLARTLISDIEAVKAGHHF
UniProt Q15631: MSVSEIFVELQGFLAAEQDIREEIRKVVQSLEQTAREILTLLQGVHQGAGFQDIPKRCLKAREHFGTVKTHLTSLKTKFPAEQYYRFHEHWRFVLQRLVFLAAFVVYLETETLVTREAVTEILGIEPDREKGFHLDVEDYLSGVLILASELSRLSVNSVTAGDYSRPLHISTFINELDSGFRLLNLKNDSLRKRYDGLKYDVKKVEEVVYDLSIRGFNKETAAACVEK
UniProt Q5R3I4: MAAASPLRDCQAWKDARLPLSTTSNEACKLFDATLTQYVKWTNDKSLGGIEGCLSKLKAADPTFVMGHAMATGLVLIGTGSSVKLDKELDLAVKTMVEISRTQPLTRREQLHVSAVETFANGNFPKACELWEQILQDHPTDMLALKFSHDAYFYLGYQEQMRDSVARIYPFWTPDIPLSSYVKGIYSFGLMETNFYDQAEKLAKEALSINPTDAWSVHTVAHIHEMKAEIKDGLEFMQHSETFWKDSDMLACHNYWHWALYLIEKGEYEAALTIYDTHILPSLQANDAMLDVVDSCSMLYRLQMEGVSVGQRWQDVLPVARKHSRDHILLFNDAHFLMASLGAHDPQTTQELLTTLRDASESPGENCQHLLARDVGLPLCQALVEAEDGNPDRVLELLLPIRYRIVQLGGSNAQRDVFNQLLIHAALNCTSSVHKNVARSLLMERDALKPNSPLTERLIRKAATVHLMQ
UniProt Q9Y5R8, whole entry, looked up: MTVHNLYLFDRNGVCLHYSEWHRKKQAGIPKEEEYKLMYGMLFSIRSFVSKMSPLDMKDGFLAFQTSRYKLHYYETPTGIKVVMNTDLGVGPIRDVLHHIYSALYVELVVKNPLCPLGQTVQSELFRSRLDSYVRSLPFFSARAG
UniProt Q8NG68: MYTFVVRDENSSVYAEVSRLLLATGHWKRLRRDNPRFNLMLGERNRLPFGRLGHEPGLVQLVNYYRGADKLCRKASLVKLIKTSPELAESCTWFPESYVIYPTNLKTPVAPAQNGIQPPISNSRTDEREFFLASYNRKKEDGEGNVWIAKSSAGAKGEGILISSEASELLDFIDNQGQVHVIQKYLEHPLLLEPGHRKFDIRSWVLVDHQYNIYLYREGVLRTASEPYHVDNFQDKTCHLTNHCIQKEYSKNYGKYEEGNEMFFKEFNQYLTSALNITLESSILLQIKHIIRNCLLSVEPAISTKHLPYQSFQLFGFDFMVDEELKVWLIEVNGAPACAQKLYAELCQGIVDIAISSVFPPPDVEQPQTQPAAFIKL
UniProt Q15642: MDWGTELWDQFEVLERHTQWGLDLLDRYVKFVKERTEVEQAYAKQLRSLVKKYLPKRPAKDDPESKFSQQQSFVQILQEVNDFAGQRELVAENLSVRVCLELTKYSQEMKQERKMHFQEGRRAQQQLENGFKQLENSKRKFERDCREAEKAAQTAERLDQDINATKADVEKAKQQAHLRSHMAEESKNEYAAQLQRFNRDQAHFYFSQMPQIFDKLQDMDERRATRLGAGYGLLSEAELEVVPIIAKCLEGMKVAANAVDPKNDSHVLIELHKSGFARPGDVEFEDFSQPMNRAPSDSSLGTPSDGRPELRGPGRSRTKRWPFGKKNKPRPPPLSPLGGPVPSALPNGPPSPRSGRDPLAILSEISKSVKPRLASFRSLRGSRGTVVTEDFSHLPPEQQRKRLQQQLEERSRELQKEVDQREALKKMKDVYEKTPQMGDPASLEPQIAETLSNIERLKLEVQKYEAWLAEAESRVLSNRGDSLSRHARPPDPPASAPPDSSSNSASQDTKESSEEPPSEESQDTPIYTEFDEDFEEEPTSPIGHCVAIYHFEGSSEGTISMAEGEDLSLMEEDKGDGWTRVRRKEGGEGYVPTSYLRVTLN
UniProt Q9Y5S1: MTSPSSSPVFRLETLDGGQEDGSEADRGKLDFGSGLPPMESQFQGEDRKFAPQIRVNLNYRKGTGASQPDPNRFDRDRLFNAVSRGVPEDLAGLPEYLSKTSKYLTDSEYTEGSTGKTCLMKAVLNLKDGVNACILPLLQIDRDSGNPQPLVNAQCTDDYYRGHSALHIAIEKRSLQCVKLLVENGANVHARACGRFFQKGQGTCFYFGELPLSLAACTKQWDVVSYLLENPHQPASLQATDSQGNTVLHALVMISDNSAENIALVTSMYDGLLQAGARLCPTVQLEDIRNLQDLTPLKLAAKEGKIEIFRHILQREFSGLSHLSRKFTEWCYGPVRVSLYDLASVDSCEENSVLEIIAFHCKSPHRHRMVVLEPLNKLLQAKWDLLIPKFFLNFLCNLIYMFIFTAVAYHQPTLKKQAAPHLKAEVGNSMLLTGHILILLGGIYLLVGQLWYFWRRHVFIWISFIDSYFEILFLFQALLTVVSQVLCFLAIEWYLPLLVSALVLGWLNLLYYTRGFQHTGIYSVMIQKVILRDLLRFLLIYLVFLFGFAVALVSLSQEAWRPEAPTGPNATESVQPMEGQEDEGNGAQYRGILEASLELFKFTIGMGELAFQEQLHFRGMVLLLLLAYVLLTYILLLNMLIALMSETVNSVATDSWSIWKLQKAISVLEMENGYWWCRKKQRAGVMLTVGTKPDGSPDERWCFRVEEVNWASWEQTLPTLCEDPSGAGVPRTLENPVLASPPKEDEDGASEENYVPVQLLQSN
UniProt Q8WW01: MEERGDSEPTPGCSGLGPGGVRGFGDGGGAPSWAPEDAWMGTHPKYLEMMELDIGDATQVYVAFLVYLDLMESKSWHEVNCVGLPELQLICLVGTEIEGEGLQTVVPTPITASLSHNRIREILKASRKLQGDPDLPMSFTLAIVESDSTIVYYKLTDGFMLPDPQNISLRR
UniProt O14717: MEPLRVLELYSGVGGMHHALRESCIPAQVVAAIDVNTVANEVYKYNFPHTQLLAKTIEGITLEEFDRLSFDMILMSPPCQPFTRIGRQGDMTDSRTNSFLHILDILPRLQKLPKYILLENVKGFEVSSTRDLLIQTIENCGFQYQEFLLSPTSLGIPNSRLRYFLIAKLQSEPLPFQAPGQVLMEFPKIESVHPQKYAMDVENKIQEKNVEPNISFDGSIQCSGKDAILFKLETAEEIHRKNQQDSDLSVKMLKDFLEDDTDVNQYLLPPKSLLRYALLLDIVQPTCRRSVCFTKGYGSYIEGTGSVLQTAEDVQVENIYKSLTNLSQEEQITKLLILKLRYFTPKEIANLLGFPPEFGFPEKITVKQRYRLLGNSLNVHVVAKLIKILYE
UniProt Q9Y5U2: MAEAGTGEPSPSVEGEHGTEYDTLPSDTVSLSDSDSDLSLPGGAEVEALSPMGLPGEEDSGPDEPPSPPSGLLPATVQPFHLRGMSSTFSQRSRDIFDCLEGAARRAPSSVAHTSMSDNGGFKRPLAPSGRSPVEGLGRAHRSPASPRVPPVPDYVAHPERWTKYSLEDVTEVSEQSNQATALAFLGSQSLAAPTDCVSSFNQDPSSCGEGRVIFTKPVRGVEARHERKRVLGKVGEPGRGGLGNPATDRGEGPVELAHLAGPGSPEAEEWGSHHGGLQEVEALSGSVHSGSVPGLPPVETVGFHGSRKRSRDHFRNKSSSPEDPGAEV
UniProt Q99816: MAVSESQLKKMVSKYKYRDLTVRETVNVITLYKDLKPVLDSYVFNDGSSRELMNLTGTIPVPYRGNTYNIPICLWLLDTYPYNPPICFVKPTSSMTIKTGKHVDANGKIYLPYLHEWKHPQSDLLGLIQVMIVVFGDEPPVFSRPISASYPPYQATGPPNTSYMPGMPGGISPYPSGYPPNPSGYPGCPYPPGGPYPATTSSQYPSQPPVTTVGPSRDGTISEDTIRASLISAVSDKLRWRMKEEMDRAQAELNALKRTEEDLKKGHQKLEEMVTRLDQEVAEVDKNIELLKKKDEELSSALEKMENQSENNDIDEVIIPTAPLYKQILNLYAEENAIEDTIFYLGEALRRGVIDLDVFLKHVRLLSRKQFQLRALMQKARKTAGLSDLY
UniProt P49815: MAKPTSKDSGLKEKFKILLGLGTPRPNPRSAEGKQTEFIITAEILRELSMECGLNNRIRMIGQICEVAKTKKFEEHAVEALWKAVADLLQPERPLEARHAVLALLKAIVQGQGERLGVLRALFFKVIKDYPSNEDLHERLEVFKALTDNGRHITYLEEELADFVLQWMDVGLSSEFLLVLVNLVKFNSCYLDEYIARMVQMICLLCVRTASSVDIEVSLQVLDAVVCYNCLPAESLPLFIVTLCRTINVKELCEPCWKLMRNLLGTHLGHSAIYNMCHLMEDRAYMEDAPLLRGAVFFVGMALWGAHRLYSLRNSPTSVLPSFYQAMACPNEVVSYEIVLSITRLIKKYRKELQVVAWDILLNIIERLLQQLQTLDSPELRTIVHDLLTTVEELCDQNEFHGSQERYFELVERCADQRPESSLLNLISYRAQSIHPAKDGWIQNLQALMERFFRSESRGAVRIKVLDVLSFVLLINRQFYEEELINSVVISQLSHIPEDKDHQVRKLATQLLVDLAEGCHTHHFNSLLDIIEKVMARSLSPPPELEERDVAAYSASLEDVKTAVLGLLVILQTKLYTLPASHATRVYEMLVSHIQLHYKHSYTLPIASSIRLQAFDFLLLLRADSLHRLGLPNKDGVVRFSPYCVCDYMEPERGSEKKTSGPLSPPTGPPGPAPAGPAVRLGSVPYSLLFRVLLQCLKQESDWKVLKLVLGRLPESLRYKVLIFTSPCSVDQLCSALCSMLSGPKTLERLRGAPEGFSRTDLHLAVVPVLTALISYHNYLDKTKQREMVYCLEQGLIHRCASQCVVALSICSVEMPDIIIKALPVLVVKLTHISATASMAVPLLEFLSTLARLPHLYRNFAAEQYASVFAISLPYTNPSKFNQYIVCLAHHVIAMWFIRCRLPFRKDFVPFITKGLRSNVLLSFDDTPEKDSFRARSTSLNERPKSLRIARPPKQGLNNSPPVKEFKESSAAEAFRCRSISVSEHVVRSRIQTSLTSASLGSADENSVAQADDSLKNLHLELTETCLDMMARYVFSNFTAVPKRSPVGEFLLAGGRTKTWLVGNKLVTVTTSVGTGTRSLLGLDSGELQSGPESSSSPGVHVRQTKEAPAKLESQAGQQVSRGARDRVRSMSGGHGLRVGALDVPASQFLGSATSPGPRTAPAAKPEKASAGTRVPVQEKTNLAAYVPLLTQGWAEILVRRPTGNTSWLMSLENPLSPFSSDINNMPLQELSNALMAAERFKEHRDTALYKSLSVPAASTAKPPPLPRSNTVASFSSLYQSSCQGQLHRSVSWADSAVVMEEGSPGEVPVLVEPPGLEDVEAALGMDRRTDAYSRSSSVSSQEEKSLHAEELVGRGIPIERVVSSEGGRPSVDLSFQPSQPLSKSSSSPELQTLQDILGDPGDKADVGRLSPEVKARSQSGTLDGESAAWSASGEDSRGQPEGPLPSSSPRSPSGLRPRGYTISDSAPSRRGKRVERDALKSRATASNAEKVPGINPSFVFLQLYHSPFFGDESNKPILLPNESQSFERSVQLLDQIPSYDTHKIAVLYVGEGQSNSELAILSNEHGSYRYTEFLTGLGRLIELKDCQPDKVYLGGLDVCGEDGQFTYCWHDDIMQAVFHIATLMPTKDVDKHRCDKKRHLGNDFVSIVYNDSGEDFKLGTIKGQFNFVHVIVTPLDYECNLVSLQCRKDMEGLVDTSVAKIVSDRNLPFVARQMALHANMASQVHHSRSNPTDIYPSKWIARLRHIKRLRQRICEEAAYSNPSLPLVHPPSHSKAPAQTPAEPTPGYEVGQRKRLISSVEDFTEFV
UniProt Q8NG06: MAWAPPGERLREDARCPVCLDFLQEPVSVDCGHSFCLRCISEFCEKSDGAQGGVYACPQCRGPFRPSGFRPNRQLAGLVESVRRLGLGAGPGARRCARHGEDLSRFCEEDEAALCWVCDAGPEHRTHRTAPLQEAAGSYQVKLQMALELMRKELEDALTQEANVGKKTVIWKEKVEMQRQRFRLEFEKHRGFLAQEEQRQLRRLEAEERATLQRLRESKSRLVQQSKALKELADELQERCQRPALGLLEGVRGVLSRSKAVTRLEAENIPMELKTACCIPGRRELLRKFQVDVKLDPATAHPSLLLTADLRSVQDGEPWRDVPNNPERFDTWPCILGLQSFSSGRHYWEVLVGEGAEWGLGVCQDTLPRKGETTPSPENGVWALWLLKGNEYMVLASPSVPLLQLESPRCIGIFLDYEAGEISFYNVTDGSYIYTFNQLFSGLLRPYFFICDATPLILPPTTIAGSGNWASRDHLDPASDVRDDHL

Tests used:
Experiment in all cases: log2 fold change, soluble protein after heating vs DMSO (PISA); higher = thermal stabilisation; K562 lysate, 10 uM; active = over 0.2 and 3.5 SD of the protein, either way, in both replicates (recomputed)
[1] = compound: Cc1cn(-c2cc(NC(=O)c3ccc(C)c(Nc4nccc(-c5cccnc5)n4)c3)cc(C(F)(F)F)c2)cn1 [nilotinib]
Summary of the method: (§1)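 The values are log-two fold changes in thermal stability compared with solvent controls and come from duplicates. They were obtained by TMTpro 16plex LC-MS/MS, with channel sums equalised, on the supernatant after 21,000xg for 90 min. That supernatant came from crude K562 extract at 1 mg/mL protein treated with 10 μM compound for 30 min, heated for 3 min across 48°C-58°C, pooled and brought to 0.5% NP-40 at 4°C.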

[2] = compound: Cc1nc(Nc2n[nH]c3c2CN(C(=O)N[C@H](CN(C)C)c2ccccc2)C3(C)C)c2sccc2n1
Summary of the method: as §1

[3] = compound: Cc1nc(Nc2ncc(C(=O)Nc3c(C)cccc3Cl)s2)cc(N2CCN(CCO)CC2)n1 [dasatinib]
Summary of the method: as §1

[4] = compound: Cc1ncc(-c2ccnc(Nc3ccc(S(C)(=O)=O)cc3)n2)n1C(C)C
Summary of the method: as §1

[5] = compound: Cn1cc(-c2ccc3c(c2)CCN3C(=O)Cc2cccc(C(F)(F)F)c2)c2c(N)ncnc21
Summary of the method: as §1

[6] = compound: Cn1cc(CNCC2CCN(c3ncc(C(=O)NO)cn3)CC2)c2ccccc21 [quisinostat]
Summary of the method: as §1

[7] = compound: Cn1cncc1[C@@](N)(c1ccc(Cl)cc1)c1ccc2c(c1)c(-c1cccc(Cl)c1)cc(=O)n2C [tipifarnib]
Summary of the method: as §1

[8] = compound: NC(=O)Nc1cc(-c2cccc(F)c2)sc1C(=O)N[C@H]1CCCNC1
Summary of the method: as §1

[9] = compound: NC(=O)c1cnc(N[C@@H]2CCCC[C@@H]2N)nc1Nc1cccc(-n2nccn2)c1
Summary of the method: as §1

[10] = compound: NC1(c2ccc(-c3nc4ccn5c(=O)[nH]nc5c4cc3-c3ccccc3)cc2)CCC1
Summary of the method: as §1

[11] = compound: NCC(=O)Nc1ccc(-n2nc(C(F)(F)F)cc2-c2ccc3c(ccc4ccccc43)c2)cc1
Summary of the method: as §1

[12] = compound: O=C(CCCCCCC(=O)Nc1ccccc1)NO [vorinostat]
Summary of the method: as §1

[13] = compound: O=C(O)c1ccc2c(c1)nc(Nc1cccc(Cl)c1)c1ccncc12 [silmitasertib]
Summary of the method: as §1

[14] = compound: O=C1NC(=O)C(c2cnc3ccccn23)=C1c1cn2c3c(cc(F)cc13)CN(C(=O)N1CCCCC1)CC2
Summary of the method: as §1

[15] = compound: c1cn2cc(-c3ccc4cn[nH]c4c3)nc(Nc3ccc(N4CCOCC4)cc3)c2n1 [entospletinib]
Summary of the method: as §1

Target | log2 fold change [1] | log2 fold change [2] | log2 fold change [3] | log2 fold change [4] | log2 fold change [5] | log2 fold change [6] | log2 fold change [7] | log2 fold change [8] | log2 fold change [9] | log2 fold change [10] | log2 fold change [11] | log2 fold change [12] | log2 fold change [13] | log2 fold change [14] | log2 fold change [15]
TSPO (UniProt P30536) | inactive: 0.002 | inactive: -0.038 | inactive: 0.018 | inactive: 0.058 | inactive: -0.001 | inactive: -0.087 | inactive: 0.008 | inactive: 0.018 | inactive: -0.078 | inactive: 0.051 | inactive: -0.087 | inactive: -0.078 | inactive: 0.117 | inactive: -0.017 | inactive: 0.052
TSPAN14 (UniProt Q8NG11) | inactive: 0.034 | inactive: 0.01 | inactive: 0.055 | inactive: -0.02 | inactive: 0.021 | inactive: -0.214 | inactive: -0.032 | inactive: 0.016 | inactive: -0.029 | inactive: 0.014 | inactive: -0.016 | inactive: 0.073 | inactive: -0.022 | inactive: -0.086 | inactive: -0.033
TTC7B isoform 2 (UniProt Q86TV6) | inactive: -0.151 | inactive: 0.057 | inactive: -0.063 | inactive: 0.028 | inactive: 0.023 | inactive: -0.048 | inactive: -0.089 | inactive: 0.015 | inactive: -0.016 | inactive: -0.043 | inactive: -0.041 | inactive: -0.24 | inactive: 0.088 | inactive: 0.046 | inactive: -0.024
TRAPPC10 (UniProt P48553) | inactive: 0.008 | inactive: 0 | inactive: 0.011 | inactive: -0.003 | inactive: 0.02 | inactive: -0.006 | inactive: 0.011 | inactive: 0.035 | inactive: 0.026 | inactive: -0.05 | inactive: 0.015 | active: -0.248 | inactive: 0.005 | inactive: 0.049 | inactive: 0
TROAP (UniProt Q12815) | inactive: -0.041 | inactive: 0.023 | inactive: -0.071 | inactive: 0.037 | inactive: 0.043 | inactive: -0.096 | inactive: -0.005 | inactive: 0.007 | inactive: 0.031 | inactive: -0.018 | inactive: 0.003 | active: -0.382 | inactive: 0.003 | inactive: 0.014 | inactive: -0.057
TSN (UniProt Q15631) | inactive: 0.016 | inactive: -0.009 | inactive: 0.042 | inactive: 0.012 | inactive: 0.001 | inactive: 0.012 | inactive: -0.009 | inactive: 0 | inactive: -0.01 | inactive: -0.021 | inactive: 0.056 | inactive: 0.066 | inactive: -0.051 | inactive: 0.024 | inactive: 0.008
TRMU (UniProt O75648) | inactive: -0.035 | inactive: 0.076 | inactive: -0.09 | inactive: 0.002 | inactive: -0.019 | inactive: -0.058 | inactive: -0.089 | inactive: 0.002 | inactive: 0.062 | inactive: -0.066 | inactive: -0.003 | inactive: -0.104 | inactive: 0.043 | inactive: 0.006 | inactive: 0.031
TTC38 (UniProt Q5R3I4) | inactive: 0.02 | inactive: 0.016 | inactive: 0.029 | inactive: 0.059 | inactive: -0.003 | active: 0.293 | inactive: 0.026 | inactive: -0.036 | inactive: 0.015 | inactive: 0.029 | inactive: 0.017 | inactive: -0.044 | inactive: -0.014 | inactive: -0.022 | inactive: 0.029
TRAPPC1 (UniProt Q9Y5R8) | inactive: 0.102 | inactive: 0.019 | inactive: -0.017 | inactive: 0.025 | inactive: 0.031 | inactive: -0.074 | inactive: 0.086 | inactive: 0.007 | inactive: 0.067 | inactive: -0.003 | inactive: -0.016 | inactive: 0.013 | inactive: 0.047 | inactive: 0.016 | inactive: 0.048
TTL (UniProt Q8NG68) | inactive: -0.045 | inactive: -0.082 | inactive: -0.049 | inactive: -0.062 | inactive: 0.056 | inactive: -0.115 | inactive: -0.008 | inactive: 0.017 | inactive: 0.018 | inactive: 0.03 | inactive: -0.027 | active: -0.376 | inactive: 0.021 | inactive: 0.057 | inactive: 0.138
TRIP10 isoform 2 (UniProt Q15642) | inactive: 0.101 | inactive: -0.023 | inactive: 0.147 | inactive: -0.008 | inactive: 0.143 | inactive: 0.014 | inactive: 0.117 | inactive: 0.069 | inactive: -0.093 | inactive: -0.178 | inactive: -0.11 | inactive: 0.016 | inactive: -0.141 | inactive: -0.159 | inactive: 0.113
TRPV2 (UniProt Q9Y5S1) | inactive: 0.018 | inactive: 0.011 | inactive: -0.06 | inactive: 0.034 | inactive: -0.029 | inactive: 0.065 | inactive: -0.069 | inactive: -0.036 | inactive: -0.005 | inactive: 0.014 | inactive: -0.009 | inactive: 0.007 | inactive: 0 | inactive: -0.021 | inactive: -0.007
TSEN15 (UniProt Q8WW01) | inactive: 0 | inactive: 0.048 | inactive: -0.012 | inactive: 0.027 | inactive: -0.004 | inactive: -0.031 | inactive: 0.019 | inactive: 0.022 | inactive: -0.023 | inactive: 0.035 | inactive: -0.081 | inactive: -0.149 | inactive: -0.015 | inactive: -0.003 | inactive: -0.058
TRIR (UniProt Q9BQ61) | inactive: -0.023 | inactive: 0.025 | inactive: 0.016 | inactive: -0.008 | inactive: -0.034 | inactive: -0.039 | inactive: -0.005 | inactive: -0.046 | inactive: -0.034 | inactive: 0.002 | inactive: -0.021 | inactive: 0.161 | inactive: -0.013 | inactive: 0.004 | inactive: 0.028
TRDMT1 (UniProt O14717) | inactive: 0 | inactive: 0.019 | inactive: 0.096 | inactive: -0.029 | inactive: -0.027 | inactive: -0.153 | inactive: -0.005 | inactive: 0.086 | inactive: 0.017 | inactive: -0.105 | inactive: 0.084 | inactive: -0.038 | inactive: 0.007 | inactive: 0.154 | inactive: 0.073
TSSC4 (UniProt Q9Y5U2) | inactive: -0.032 | inactive: -0.13 | inactive: 0.129 | inactive: 0.034 | inactive: -0.115 | inactive: -0.063 | inactive: -0.042 | inactive: -0.035 | inactive: 0.047 | inactive: 0.046 | inactive: 0.039 | inactive: -0.118 | inactive: -0.021 | inactive: 0.03 | inactive: -0.043
TSG101 (UniProt Q99816) | inactive: 0.013 | inactive: -0.018 | inactive: -0.015 | inactive: 0.011 | inactive: 0.011 | inactive: 0.037 | inactive: -0.014 | inactive: -0.018 | inactive: 0.032 | inactive: 0.026 | inactive: 0.037 | inactive: -0.092 | inactive: 0.002 | inactive: -0.013 | inactive: -0.022
TRAF4 (UniProt Q9BUZ4) | inactive: -0.02 | inactive: -0.008 | inactive: -0.031 | inactive: 0.022 | inactive: -0.035 | inactive: -0.043 | inactive: 0.132 | inactive: 0.034 | inactive: -0.061 | inactive: 0.029 | inactive: -0.063 | inactive: -0.213 | inactive: 0.125 | inactive: 0.023 | inactive: 0.03
TRMT11 (UniProt Q7Z4G4) | inactive: 0.019 | inactive: -0.092 | inactive: 0.002 | inactive: -0.041 | inactive: -0.002 | inactive: 0.022 | inactive: 0.003 | inactive: -0.003 | inactive: -0.021 | inactive: 0.002 | inactive: -0.032 | inactive: -0.004 | inactive: 0.016 | inactive: 0.001 | inactive: -0.015
TSC2 isoform 4 (UniProt P49815) | inactive: 0.013 | inactive: -0.024 | inactive: -0.044 | inactive: 0.098 | inactive: -0.006 | inactive: -0.097 | inactive: -0.052 | inactive: 0.036 | inactive: 0.049 | inactive: -0.059 | inactive: 0.024 | inactive: -0.154 | inactive: -0.064 | inactive: 0.067 | inactive: 0.005
TRIM58 (UniProt Q8NG06) | inactive: -0.01 | inactive: 0.065 | inactive: 0.042 | inactive: -0.063 | inactive: -0.016 | inactive: -0.032 | inactive: 0 | inactive: 0.075 | – | inactive: 0.065 | inactive: 0.011 | inactive: -0.157 | inactive: 0.03 | inactive: 0.005 | inactive: -0.029

In a second layout: results already given
Target	log2 fold change [1]	log2 fold change [2]	log2 fold change [3]	log2 fold change [4]	log2 fold change [5]	log2 fold change [6]	log2 fold change [7]	log2 fold change [8]	log2 fold change [9]	log2 fold change [10]	log2 fold change [11]	log2 fold change [12]	log2 fold change [13]	log2 fold change [14]	log2 fold change [15]
TSN (UniProt Q15631)	inactive: 0.016	inactive: -0.009	inactive: 0.042	inactive: 0.012	inactive: 0.001	inactive: 0.012	inactive: -0.009	inactive: 0	inactive: -0.01	inactive: -0.021	inactive: 0.056	inactive: 0.066	inactive: -0.051	inactive: 0.024	inactive: 0.008
TRMU (UniProt O75648)	inactive: -0.035	inactive: 0.076	inactive: -0.09	inactive: 0.002	inactive: -0.019	inactive: -0.058	inactive: -0.089	inactive: 0.002	inactive: 0.062	inactive: -0.066	inactive: -0.003	inactive: -0.104	inactive: 0.043	inactive: 0.006	inactive: 0.031
TTC38 (UniProt Q5R3I4)	inactive: 0.02	inactive: 0.016	inactive: 0.029	inactive: 0.059	inactive: -0.003	active: 0.293	inactive: 0.026	inactive: -0.036	inactive: 0.015	inactive: 0.029	inactive: 0.017	inactive: -0.044	inactive: -0.014	inactive: -0.022	inactive: 0.029
